Cell number change and AC50 data for 58 molecules are collected here from PubChem BioAssay AID2685 (National Center for Advancing Translational Sciences (NCATS), 2010).

“And” between values parts separate entries of the source, which are not always exact repeats. Identical values can stand only once. The list shows a part of the results. Shown are side measurements of this screen, not its main read-out; they come without a call. Compounds called inactive in the main read-out are mostly missing here. Words in brackets tell the shape of the fitted curve; partial curves, single points and poor fits give uncertain potencies.

The assay can be described thus: qHTS Assay for Lipid Storage Modulators in Drosophila S3 Cells.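 On Cell number change: cells counted by Cell Tracker Red CMTPX staining in the red channel.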 Conditions: BODIPY lipid droplet fluorescence, 18-24 h; for cell number change: measured here: cell count max response, cells fed with added oleic acid. The method, boiled down: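 Drosophila S3 cells loaded with oleic acid (400 uM, as added) and compounds at several concentrations; lipid droplets imaged by 488-nm laser-scanning cytometry, 500–530 nm intensity and object ratio to cell channel. Percent activity normalized to 20 uM Triacsin C.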

The mark [1] stands for this setting: measured here: cell number channel AC50, cells fed with added oleic acid.
[2] abbreviates: measured here: lipid fluorescence (Fed channel) AC50, cells fed with added oleic acid.

Turning to `O=C(COc1cccc(Oc2ccccc2)c1)Nc1ccc(SC(F)F)cc1`, the cell number change worked out at 57.9%. Under setting [1], the AC50 was 29.1 µM [rising, single point].

As to `CC(C)NS(=O)(=O)c1ccc(OCC(=O)NCCC2=CCCCC2)cc1`, the cell number change was determined as 6.2%. Under setting [2], the AC50 was 0.0731 µM [falling, full curve, poor fit].

As to `CCCCCCCCCCCCCCCC(O)C(N)CO` (configuration not stated), the cell number change was found to be 14.1%. In addition, under setting [2], the AC50 was 0.0731 µM [falling, full curve, poor fit].

As to `Cc1ccc(-c2nc(-c3ccncc3)no2)cc1Cl`, the cell number change was determined as 24%. Moreover, the AC50 under setting [2] was 2.06 µM [rising, full curve].

With `CSc1c(-c2ccccn2)c(N)nn1C(=O)C1CC1`, the cell number change is -34.6%. Also, under setting [1], the AC50 is 18.4 µM [falling, single point]. Further, the AC50 under setting [2] was 25.9 µM [falling, single point].

As for `Cc1cccc(NC(=O)CSc2nnc(-c3ccccc3)n2N)c1`, the cell number change was -53.2%. In addition, the AC50 under setting [1] is 29.1 µM [falling, single point].

For the molecule `CCc1ccc(NS(=O)(=O)c2ccc3[nH]cc(C(=O)N4CCc5ccccc54)c(=O)c3c2)cc1`, the cell number change came out at 7.5%. For the same molecule, the AC50 under setting [2] is 25.9 µM [rising, partial curve, poor fit].

Take `CC1CC(C)(C)NC(=S)N1CCC(=O)N1c2ccccc2CC1C` (configuration not stated): the cell number change was 46%. Moreover, the AC50 under setting [1] is 0.231 µM [rising, full curve, poor fit].

In the case of `COc1ccc(OC)c(/C=N/NC(=O)CSc2cc(C)nc3c(OC)cccc23)c1`, the cell number change was -68.2%. Further, under setting [1], the AC50 is 16.4 µM [falling, partial curve]. For the same molecule, the AC50 under setting [2] is 20.6 µM [falling, partial curve, poor fit].

For `O=C(NN1C(=O)c2cc(Br)ccc2NC1c1ccccc1Cl)c1ccncc1` (configuration not stated), the cell number change stood at 13.4%. Further, the AC50 under setting [1] was 1.64 µM [rising, partial curve, poor fit]. The AC50 under setting [2] was 0.82 µM [rising, full curve, poor fit].

For the molecule `O=C(NC(Cc1ccc2c(c1)OCO2)C(=O)NC(Cc1ccccc1)C(=O)O)c1ccccc1` (configuration not stated), the cell number change was found to be 4.96%.

Consider `Cc1[nH][nH]c(=O)c1C(c1ccc(-c2ccccc2C(=O)O)o1)c1c(C)[nH][nH]c1=O`, for which the cell number change was -29%. For the same molecule, the AC50 under setting [2] is 0.731 µM [rising, single point].

In the case of `CCn1nc(C(=O)Nc2cc(Cl)ccc2-n2cncn2)c2ccccc2c1=O`, the cell number change was -14.4%. Also, under setting [2], the AC50 was 5.17 µM [rising, partial curve].

Turning to `CCOc1cc(C2CC(=O)NC(SCC)=C2C#N)ccc1O` (configuration not stated), the cell number change amounted to 9.45%. Under setting [2], the AC50 is 29.1 µM [rising, single point].

For the molecule `O=C(OCc1nnc(-c2ccccc2)o1)c1cn(-c2ccccc2)nc1-c1ccccc1`, the cell number change was -32.1%. In addition, the AC50 under setting [1] is 16.4 µM [falling, single point]. The AC50 under setting [2] is 29.1 µM [falling, single point].

Take `Cc1nnc(C)n1/N=C/C=C/c1ccccc1`: the cell number change was -5.18%. In addition, the AC50 under setting [1] is 0.164 µM [falling, full curve, poor fit]. For the same molecule, under setting [2], the AC50 was 0.116 µM [falling, full curve, poor fit].

As to `COc1ccc(S(=O)(=O)Cc2ccccc2)cc1N`, the cell number change was found to be 7.65%. The AC50 under setting [2] was 0.366 µM [rising, partial curve].

Consider `CCOC(=O)CCCNC(=O)CN1C(=O)NC(CCc2ccccc2)C1=O` (configuration not stated), for which the cell number change was -6.6%.

As for `Clc1ccc(CSc2ccc(-c3ccccn3)nn2)cc1`, the cell number change was -3.73%. Moreover, the AC50 under setting [2] is 0.13 µM [falling, full curve, poor fit].

`COC(CNC(=O)c1cccc2c1C(=O)N(Cc1cccnc1)C2)OC`: the AC50 under setting [1] is 6.51 µM [rising, single point].

Consider `CCN1C(=O)[C@H]2[C@@H](c3ccc(C)cc3)N3C(=O)N(c4ccccc4)C(=O)[C@@]3(C)[C@H]2C1=O`, for which the cell number change is -8.74%.

For the molecule `O=C(N/N=C/C=C\c1ccccc1[N+](=O)[O-])c1ccccn1`, the cell number change amounted to 22.7%. For the same molecule, the AC50 under setting [2] was 4.61 µM [rising, full curve, poor fit].

`CS(=O)(=O)N(CC(=O)NCCSC1CCCCC1)c1cccc(F)c1`: the cell number change was -13%. Moreover, the AC50 under setting [2] is 0.00461 µM [falling, full curve, poor fit].

Consider `Cc1ccc(S(=O)(=O)NCCCNC(=O)N2CCOCC2)cc1`, for which the cell number change was -15.1%. In addition, the AC50 under setting [2] is 2.31 µM [falling, full curve].

As for `O=C(CSc1nnc2scc(-c3ccc(Cl)cc3)n12)NCc1ccc2c(c1)OCO2`, the cell number change is -35.2%. The AC50 under setting [1] is 29.1 µM [falling, single point].

As to `CCCCc1cc(=O)oc2cc(OCC(=O)N(CC)CC)c(Cl)cc12`, the AC50 is 0.58 µM [rising, single point] under setting [1] and 1.3 µM [rising, full curve, poor fit] under setting [2].

Turning to `COc1cccc(N(C(=O)c2snc(C(N)=O)c2N)C(C(=O)NCC2CCCO2)c2ccc(C)o2)c1` (configuration not stated), the cell number change is 17.4%. In addition, the AC50 under setting [2] is 0.651 µM [rising, full curve].

Regarding `O=C(NNS(=O)(=O)c1ccc(F)cc1)c1ccccc1F`, the cell number change was -8.52%.

For `COc1ccc(OC)c(NC(=S)N2CCc3ccccc3C2)c1`, the cell number change amounted to 14.8%. For the same molecule, the AC50 under setting [2] was 16.4 µM [rising, partial curve].

With `CCOC(=O)c1cccc(C2=CC(=O)C[C@H](c3ccc(OC)c(OC)c3)C2)c1`, the cell number change worked out at 8.04%. Also, under setting [2], the AC50 is 29.1 µM [falling, single point].

For `COc1ccc(NC(=O)NNC(=O)CCC(=O)Nc2ccccc2Cl)cc1`, the cell number change was -1.64%. Moreover, under setting [1], the AC50 was 5.8 µM [falling, single point]. Moreover, the AC50 under setting [2] was 4.61 µM [falling, single point].

As to `Cc1cc(C)cc(NC(=S)NCc2ccc(F)cc2)c1`, the cell number change is -60.4%. Also, the AC50 under setting [1] is 29.1 µM [falling, single point].

For the molecule `Nc1nc(NS(=O)(=O)c2ccc(Cl)cc2)nn1-c1ccccc1`, the cell number change came out at 9.38%. For the same molecule, under setting [2], the concentration at half-maximal activity (AC50) was 6.51 µM [falling, single point].

In the case of `Cc1[nH]nc(-c2ccc(OCc3cnn(-c4ccccc4)c3)cc2O)c1Oc1ccc(Cl)cc1`, the cell number change is -40%. Also, the AC50 under setting [1] is 32.6 µM [falling, partial curve, poor fit]. Further, under setting [2], the AC50 is 20.6 µM [rising, single point].

As for `O=C(CCC1CCCC1)Nc1ccon1`, the cell number change came to 6.47%. The AC50 under setting [2] was 0.0517 µM [rising, partial curve, poor fit].

Regarding `O/N=C/c1cc(Cl)ccc1OCc1cccc2ccccc12`, the cell number change is -32.9%. Under setting [1], the concentration at half-maximal activity (AC50) was 20.6 µM [falling, partial curve, poor fit].

As for `Cc1ccc(-c2cc(C(=O)NCc3cn(C)nc3C)c3cc(Br)ccc3n2)cc1`, the cell number change was 5.68%. Moreover, the half-maximal activity concentration (AC50) under setting [2] is 0.0731 µM [rising, full curve].

On to `N/C(=N\OC(=O)COc1ccccc1)c1ccccn1`, for which the cell number change stood at 10.6%.

Take `COc1ccc(-c2nc(Cc3ccc(Cl)cc3)no2)cc1OC`: the cell number change was -22%.

On to `CN(C)CCN(C(=O)CCc1ccccc1)c1nc2c(F)cc(F)cc2s1`, for which the cell number change was -9.49%. Further, under setting [1], the AC50 was 6.51 µM [falling, single point].

Turning to `CC(=O)c1c(C)[nH]c(C(=O)OCC(=O)NCc2ccc3c(c2)OCO3)c1C`, the cell number change is -17.5%. Also, under setting [2], the AC50 was 0.0259 µM [rising, full curve, poor fit].

As for `COc1ccccc1CC(=O)NCC(c1ccco1)N1CCCCC1` (configuration not stated), the cell number change is -21.4%. Besides, under setting [2], the AC50 was 29.1 µM [rising, single point].

Turning to `CN(c1ccccc1)S(=O)(=O)c1cccc(NC(=O)Cc2n[nH]c(=O)c3ccccc23)c1`, the cell number change is -12.6%. For the same molecule, the AC50 under setting [2] was 1.46 µM [rising, partial curve].

Regarding `CCOC(=O)c1ccc(N(CC(=O)NCC2CCCO2)C(=O)CCC(=O)Nc2cc(C)on2)cc1` (configuration not stated), the cell number change stood at 21.7%.

For `Cc1cc(Br)c(S(=O)(=O)NCCN2CCOCC2)cc1C`, the cell number change is 13.4%. The AC50 under setting [1] is 0.731 µM [falling, full curve, poor fit]. For the same molecule, under setting [2], the half-maximal activity concentration (AC50) was 0.731 µM [falling, full curve].

Take `CC(C)C(c1nnnn1C1CCCC1)N1CCN(c2ccccc2F)CC1` (configuration not stated): the cell number change came to 22.4%. Under setting [1], the AC50 is 0.58 µM [rising, full curve, poor fit]. Besides, the AC50 under setting [2] was 5.17 µM [rising, full curve].

Turning to `CC(C)OC(=O)CCCN1C(=O)c2ccc(N)cc2C1=O`, the cell number change was -8.09%. Moreover, under setting [2], the AC50 is 7.31 µM [falling, single point].

Turning to `COC(=O)c1[nH]c(C)c(/C(O)=C2\C(=O)C(=O)N(CCN(C)C)C2c2cccs2)c1C` (configuration not stated), the cell number change was determined as 0.996%. Moreover, under setting [1], the AC50 is 3.66 µM [falling, single point].

Turning to `CCn1cnc2cc(NCc3ccc(C)cc3)ccc21`, the cell number change is -13.8%. Under setting [2], the AC50 was 29.1 µM [rising, single point].

In the case of `Cn1cnc(S(=O)(=O)N2CCN(C(c3ccc(F)cc3)c3ccc(F)cc3)CC2)c1`, the cell number change came to 4.89%. In addition, under setting [2], the AC50 was 0.00461 µM [falling, full curve, poor fit].

On to `COc1cccc(NC(=O)N2CCCC(C(=O)Nc3ccccc3OC)C2)c1` (configuration not stated), for which the cell number change was -18.3%. In addition, the AC50 under setting [2] was 29.1 µM [falling, single point].

Turning to `CC1CN(C(=O)COC(=O)c2ccc(N(C)C)cc2)CC(C)O1` (configuration not stated), the cell number change amounted to 85.8%.

As to `NC(=O)c1cc(S(=O)(=O)N2CCOCC2)cs1`, the cell number change is -10.6%. Further, under setting [1], the AC50 was 1.16 µM [rising, full curve]. The AC50 under setting [2] is 8.2 µM [rising, partial curve, poor fit].

Regarding `COc1cccc(OC)c1C(=O)NNC(=O)c1ccccc1-n1cccc1`, the cell number change is -17.4%. Besides, the AC50 under setting [2] is 0.103 µM [falling, full curve, poor fit].

Turning to `O=C(CSc1ncnc2c1cnn2-c1ccc(F)cc1)NCC1CCCO1` (configuration not stated), the cell number change was -26.6%.

As for `CC1CN(C(=O)COC(=O)c2cc([N+](=O)[O-])ccc2Cl)CC(C)O1` (configuration not stated), the cell number change turned out to be 51%. In addition, the AC50 under setting [1] is 29.1 µM [rising, single point]. The AC50 under setting [2] is 16.4 µM [rising, single point].

For the molecule `CCOC(=O)N1CCC(Nc2c(NCCCN3CCN(c4ccc(OC)cc4)CC3)c(=O)c2=O)CC1`, the cell number change was found to be 2.81%. Moreover, the AC50 under setting [2] was 6.51 µM [falling, single point].

Consider `CCN1C(=NCCc2ccccn2)N[C@@H](c2cccc(F)c2)C(C(=O)OC)=C1C`, for which the cell number change was -5.09% and 14.4%. In addition, the AC50 under setting [2] is 23.1 µM [rising, single point] and 29.1 µM [rising, single point].
